# According to the supplement of paper PMC12819154, “High-throughput peptide-centric local stability assay extends protein–ligand identification to membrane proteins, tissues and bacteria” (Nature Structural & Molecular Biology, 2025):
# Protein sequences, listed by entry. Tags and fused reporters are not part of them. Lines headed by an entry give the natural chain unless they say otherwise; changes in a name come on top.
# UniProt O15131, whole entry: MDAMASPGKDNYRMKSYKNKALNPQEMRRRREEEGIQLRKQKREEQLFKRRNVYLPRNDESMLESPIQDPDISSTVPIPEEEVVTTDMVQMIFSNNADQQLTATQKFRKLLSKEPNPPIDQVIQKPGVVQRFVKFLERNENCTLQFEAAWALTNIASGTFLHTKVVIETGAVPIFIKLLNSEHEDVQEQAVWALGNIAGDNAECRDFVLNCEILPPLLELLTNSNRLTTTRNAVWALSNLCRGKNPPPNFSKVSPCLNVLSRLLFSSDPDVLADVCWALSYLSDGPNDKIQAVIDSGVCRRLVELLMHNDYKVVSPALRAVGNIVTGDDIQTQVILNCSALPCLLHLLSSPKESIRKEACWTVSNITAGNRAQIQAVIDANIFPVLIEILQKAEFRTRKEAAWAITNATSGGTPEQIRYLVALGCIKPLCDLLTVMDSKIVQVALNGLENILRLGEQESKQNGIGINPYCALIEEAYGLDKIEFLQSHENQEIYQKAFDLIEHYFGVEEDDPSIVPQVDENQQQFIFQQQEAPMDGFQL
# UniProt O14628: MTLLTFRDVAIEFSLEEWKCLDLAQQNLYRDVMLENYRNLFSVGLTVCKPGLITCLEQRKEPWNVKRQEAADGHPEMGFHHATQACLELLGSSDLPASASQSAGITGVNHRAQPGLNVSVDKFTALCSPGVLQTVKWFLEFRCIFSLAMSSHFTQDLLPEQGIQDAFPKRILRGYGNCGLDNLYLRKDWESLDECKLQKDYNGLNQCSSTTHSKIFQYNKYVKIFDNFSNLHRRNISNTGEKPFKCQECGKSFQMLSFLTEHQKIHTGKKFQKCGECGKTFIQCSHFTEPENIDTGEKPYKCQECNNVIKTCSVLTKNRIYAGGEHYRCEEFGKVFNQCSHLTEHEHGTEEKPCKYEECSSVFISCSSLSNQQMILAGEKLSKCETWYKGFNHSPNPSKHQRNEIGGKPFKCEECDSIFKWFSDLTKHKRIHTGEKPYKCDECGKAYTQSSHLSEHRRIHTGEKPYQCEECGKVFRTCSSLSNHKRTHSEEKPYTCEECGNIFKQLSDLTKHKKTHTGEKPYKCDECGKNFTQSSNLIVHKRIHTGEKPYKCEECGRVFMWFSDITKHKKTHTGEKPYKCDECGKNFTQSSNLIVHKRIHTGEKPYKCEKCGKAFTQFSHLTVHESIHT
# UniProt O00748: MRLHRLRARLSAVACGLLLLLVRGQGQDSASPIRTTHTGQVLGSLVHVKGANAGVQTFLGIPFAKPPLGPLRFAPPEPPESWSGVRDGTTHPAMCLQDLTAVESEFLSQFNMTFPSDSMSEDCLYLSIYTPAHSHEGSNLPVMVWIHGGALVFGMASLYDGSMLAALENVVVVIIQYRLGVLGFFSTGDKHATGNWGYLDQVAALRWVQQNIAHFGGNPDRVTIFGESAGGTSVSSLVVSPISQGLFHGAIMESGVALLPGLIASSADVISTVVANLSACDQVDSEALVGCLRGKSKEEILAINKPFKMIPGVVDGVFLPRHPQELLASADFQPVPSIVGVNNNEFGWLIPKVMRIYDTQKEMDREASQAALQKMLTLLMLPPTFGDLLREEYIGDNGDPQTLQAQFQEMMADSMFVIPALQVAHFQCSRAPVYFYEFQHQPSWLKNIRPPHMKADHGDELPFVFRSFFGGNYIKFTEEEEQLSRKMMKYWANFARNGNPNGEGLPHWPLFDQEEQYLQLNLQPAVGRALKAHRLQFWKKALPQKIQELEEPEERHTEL
# UniProt A8MT65: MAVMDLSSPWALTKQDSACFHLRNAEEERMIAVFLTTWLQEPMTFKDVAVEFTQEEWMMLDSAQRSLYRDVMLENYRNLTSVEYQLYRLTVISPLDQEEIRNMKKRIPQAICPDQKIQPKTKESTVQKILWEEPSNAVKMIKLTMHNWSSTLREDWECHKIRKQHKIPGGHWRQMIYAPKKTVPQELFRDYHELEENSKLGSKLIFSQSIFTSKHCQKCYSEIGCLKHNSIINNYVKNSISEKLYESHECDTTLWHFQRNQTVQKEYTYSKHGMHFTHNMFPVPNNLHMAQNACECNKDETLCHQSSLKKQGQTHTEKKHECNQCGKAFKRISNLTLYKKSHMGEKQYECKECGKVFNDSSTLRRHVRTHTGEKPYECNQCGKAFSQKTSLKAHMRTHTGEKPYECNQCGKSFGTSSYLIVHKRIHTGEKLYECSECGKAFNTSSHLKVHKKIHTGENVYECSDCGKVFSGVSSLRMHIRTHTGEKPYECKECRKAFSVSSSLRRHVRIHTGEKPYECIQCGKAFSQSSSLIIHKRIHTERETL
# UniProt O00635: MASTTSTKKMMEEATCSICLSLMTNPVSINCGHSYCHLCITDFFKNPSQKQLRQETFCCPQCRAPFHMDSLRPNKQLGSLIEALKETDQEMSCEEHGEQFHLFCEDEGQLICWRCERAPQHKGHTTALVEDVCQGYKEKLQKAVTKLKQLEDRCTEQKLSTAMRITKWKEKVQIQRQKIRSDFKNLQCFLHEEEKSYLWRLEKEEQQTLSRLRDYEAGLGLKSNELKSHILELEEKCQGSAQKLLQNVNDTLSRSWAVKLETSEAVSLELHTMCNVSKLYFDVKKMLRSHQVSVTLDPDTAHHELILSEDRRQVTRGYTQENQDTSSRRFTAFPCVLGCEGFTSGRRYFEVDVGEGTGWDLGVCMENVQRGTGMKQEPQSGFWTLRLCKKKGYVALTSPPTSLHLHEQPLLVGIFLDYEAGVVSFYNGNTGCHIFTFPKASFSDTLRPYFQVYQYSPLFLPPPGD
# UniProt O15091: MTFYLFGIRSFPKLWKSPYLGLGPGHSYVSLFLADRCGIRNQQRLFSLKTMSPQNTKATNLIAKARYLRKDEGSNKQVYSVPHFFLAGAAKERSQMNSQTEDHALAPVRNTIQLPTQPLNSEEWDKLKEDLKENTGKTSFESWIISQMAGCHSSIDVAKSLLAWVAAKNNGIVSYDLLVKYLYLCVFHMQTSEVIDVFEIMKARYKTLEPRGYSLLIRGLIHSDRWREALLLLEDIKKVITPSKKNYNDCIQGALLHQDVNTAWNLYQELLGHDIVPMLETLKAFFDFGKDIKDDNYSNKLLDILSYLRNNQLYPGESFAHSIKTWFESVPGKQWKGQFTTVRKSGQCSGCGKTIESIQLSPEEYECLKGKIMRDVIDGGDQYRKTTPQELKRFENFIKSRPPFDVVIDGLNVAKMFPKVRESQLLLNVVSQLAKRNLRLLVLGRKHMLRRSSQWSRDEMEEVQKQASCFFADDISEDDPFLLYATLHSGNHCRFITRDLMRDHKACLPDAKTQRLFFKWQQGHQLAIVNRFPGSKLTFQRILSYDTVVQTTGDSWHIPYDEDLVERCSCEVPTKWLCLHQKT
# UniProt O14737: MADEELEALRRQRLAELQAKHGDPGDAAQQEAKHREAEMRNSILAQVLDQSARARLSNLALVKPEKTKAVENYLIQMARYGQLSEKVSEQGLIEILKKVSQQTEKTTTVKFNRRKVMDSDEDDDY
# UniProt A8K8V0: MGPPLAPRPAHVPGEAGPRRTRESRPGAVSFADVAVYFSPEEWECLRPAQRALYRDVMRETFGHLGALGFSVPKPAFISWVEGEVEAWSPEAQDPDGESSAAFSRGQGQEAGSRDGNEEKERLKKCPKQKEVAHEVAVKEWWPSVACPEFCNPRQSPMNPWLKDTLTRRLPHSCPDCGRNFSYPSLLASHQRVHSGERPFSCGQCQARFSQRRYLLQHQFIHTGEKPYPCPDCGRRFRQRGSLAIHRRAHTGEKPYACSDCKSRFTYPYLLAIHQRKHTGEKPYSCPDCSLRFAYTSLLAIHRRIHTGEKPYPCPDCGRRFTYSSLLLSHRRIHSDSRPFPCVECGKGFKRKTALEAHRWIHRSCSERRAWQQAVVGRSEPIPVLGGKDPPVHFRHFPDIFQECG
# UniProt O15347: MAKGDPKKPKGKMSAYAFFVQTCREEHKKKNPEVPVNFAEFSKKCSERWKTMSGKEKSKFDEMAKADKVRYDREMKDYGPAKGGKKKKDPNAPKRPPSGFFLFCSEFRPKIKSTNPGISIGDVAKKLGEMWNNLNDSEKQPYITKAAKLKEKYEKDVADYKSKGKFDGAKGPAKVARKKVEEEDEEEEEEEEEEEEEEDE
# UniProt O00148, whole entry: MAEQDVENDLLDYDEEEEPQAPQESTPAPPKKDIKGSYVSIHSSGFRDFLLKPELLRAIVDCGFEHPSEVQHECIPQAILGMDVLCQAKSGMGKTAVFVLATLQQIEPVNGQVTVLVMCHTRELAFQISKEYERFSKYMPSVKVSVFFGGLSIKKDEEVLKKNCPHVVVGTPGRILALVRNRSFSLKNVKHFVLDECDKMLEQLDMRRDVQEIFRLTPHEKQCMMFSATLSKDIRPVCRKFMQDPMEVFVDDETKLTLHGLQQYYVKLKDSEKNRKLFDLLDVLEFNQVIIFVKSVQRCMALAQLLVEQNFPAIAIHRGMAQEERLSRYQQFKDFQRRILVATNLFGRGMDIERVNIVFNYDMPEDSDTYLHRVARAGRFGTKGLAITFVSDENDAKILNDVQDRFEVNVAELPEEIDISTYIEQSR
# UniProt O00623: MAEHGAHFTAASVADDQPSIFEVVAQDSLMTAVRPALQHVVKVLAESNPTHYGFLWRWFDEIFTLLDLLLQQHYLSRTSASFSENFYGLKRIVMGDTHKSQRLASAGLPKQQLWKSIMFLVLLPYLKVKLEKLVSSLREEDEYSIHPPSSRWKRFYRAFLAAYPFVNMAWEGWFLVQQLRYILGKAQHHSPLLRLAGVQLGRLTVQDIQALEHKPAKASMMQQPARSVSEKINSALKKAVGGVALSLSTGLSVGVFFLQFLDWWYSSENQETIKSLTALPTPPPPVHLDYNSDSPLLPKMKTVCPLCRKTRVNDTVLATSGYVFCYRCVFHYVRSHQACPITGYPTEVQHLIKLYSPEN
# UniProt O14974: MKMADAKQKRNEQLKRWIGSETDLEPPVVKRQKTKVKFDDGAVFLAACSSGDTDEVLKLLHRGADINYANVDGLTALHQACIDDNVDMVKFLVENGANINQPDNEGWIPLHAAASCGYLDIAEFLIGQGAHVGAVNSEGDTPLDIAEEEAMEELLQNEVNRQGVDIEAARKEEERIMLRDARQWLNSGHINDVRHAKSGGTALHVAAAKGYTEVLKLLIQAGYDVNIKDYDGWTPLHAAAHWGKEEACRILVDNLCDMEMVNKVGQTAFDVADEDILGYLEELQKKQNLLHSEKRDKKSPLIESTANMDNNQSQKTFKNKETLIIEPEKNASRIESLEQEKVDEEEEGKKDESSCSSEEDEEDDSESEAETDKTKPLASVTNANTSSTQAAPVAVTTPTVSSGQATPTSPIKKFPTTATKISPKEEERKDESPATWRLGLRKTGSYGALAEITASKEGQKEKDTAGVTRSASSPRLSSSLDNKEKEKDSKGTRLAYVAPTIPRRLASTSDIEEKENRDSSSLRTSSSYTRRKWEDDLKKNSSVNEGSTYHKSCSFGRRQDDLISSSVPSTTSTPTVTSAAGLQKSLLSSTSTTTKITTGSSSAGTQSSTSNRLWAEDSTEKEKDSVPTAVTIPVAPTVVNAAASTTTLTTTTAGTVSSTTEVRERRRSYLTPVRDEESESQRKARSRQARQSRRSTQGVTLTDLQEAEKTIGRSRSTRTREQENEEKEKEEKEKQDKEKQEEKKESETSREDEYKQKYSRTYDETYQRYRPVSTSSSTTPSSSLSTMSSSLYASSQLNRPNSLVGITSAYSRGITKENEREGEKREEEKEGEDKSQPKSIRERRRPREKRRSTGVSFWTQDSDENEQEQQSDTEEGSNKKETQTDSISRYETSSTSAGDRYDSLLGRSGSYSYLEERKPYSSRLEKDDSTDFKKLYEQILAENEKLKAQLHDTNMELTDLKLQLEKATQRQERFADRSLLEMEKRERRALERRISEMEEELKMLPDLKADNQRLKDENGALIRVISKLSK
# UniProt O00566: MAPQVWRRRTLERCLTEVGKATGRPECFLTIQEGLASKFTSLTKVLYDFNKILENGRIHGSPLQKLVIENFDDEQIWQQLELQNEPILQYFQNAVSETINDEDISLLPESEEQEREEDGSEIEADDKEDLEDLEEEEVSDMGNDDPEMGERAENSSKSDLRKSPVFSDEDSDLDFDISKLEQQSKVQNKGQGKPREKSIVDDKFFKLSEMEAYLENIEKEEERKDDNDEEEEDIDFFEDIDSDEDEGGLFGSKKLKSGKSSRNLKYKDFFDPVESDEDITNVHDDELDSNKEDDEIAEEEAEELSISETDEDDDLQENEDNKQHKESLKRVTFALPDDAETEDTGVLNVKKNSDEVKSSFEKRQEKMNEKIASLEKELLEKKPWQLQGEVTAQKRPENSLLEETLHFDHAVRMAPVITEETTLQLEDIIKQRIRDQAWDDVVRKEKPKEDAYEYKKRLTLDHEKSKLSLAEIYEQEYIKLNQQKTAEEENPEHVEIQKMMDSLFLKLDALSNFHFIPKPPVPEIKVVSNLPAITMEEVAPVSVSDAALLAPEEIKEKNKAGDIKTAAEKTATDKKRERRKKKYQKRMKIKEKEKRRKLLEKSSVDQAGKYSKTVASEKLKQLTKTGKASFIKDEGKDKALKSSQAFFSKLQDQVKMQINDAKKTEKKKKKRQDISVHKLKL
# Some of the results follow. Most entries show no effect beyond the scatter of the controls.
# Compound: CN[C@@H]1C[C@H]2O[C@@](C)([C@@H]1OC)n1c3ccccc3c3c4c(c5c6ccccc6n2c5c31)C(=O)NC4 [staurosporine]
# Assay: log2 fold change of tryptic peptide abundance, ligand vs vehicle (limited proteolysis) (log2 ratio); higher = more trypsin-susceptible (destabilized)
# Conditions: ligand concentration: 20 uM; sample: K562 cleared lysate; digestion: 4 min, 22 C (HT-PELSA RT4min, Orbitrap Astral)
row,Target,log2 fold change
1,"KPNA5 (peptide sequence: ALNPQEMR, peptide start residue: 21) (UniProt O15131)",0.0413
2,"ACACB (peptide sequence: TVVLDLLR, peptide start residue: 1128) (UniProt O00763)",0.505
3,"PRMT5 (peptide sequence: SDLLLSGR, peptide start residue: 69) (UniProt O14744)",-0.469
4,"SPTLC1 (peptide sequence: GDIVFVDR, peptide start residue: 182) (UniProt O15269)",-0.226
5,"IPO5 (peptide sequence: FYFHDGVR, peptide start residue: 713) (UniProt O00410)",0.736
6,"AP4M1 (peptide sequence: VAPSSAASRPVLSSR, peptide start residue: 164) (UniProt O00189)",0.0264
7,"UniProt O14628 (peptide sequence: CQECNNVIK, peptide start residue: 302)",0.489
8,"CES2 (peptide sequence: ADHGDELPFVFR, peptide start residue: 455) (UniProt O00748)",0.125
9,"UniProt A8MT65 (peptide sequence: TKESTVQK, peptide start residue: 121)",0.113
10,"TRIM38 (peptide sequence: DYEAGLGLK, peptide start residue: 214) (UniProt O00635)",-0.265
11,"ARPC3 (peptide sequence: ETKDTDIVDEAIYYFK, peptide start residue: 35) (UniProt O15145)",0.194
12,"UniProt O14618 (peptide sequence: QICSCDGLTIWEER, peptide start residue: 242)",-0.247
13,"UniProt O14607 (peptide sequence: VNNIHPAVHTK, peptide start residue: 800)",0.904
14,"TBKBP1 (peptide sequence: QICGLEQQLR, peptide start residue: 161) (UniProt A7MCY6)",-0.364
15,"UniProt O15091 (peptide sequence: SRPPFDVVIDGLNVAK, peptide start residue: 400)",0.187
16,"COPE (peptide sequence: DSIVAELDREMSR, peptide start residue: 98) (UniProt O14579)",-0.101
17,"PDCD5 (peptide sequence: LSNLALVKPEKTK, peptide start residue: 56) (UniProt O14737)",0.61
18,"TAF4 (peptide sequence: DLIFCLENERETSHSLLLYK, peptide start residue: 1062) (UniProt O00268)",0.631
19,"ZNF785 (peptide sequence: RLPHSCPDCGR, peptide start residue: 169) (UniProt A8K8V0)",-0.315
20,"ZNF646 (peptide sequence: SADIGAEGAPSHLK, peptide start residue: 521) (UniProt O15015)",-0.611
21,"FANCA (peptide sequence: DSLFFCLK, peptide start residue: 828) (UniProt O15360)",-0.427
22,"HMX3 (peptide sequence: TLFAPASAAAAAAAAAAAAAK, peptide start residue: 54) (UniProt A6NHT5)",0.357
23,"HMGB3 (peptide sequence: EKSKFDEMAK, peptide start residue: 56) (UniProt O15347)",-0.477
24,"UniProt O00148 (peptide sequence: HFVLDECDK, peptide start residue: 191)",0.139
25,"PEX12 (peptide sequence: IVMGDTHK, peptide start residue: 92) (UniProt O00623)",-0.18
26,"KIF3C (peptide sequence: NMENYLQEQK, peptide start residue: 456) (UniProt O14782)",0.637
27,"PIK3CD (peptide sequence: GSGELYEHEKDLVWK, peptide start residue: 519) (UniProt O00329)",-0.383
28,"PPP1R12A (peptide sequence: QNLLHSEK, peptide start residue: 287) (UniProt O14974)",0.43
29,"MPHOSPH10 (peptide sequence: TAEEENPEHVEIQK, peptide start residue: 485) (UniProt O00566)",-0.165

# 2 entries picked at random from those above, as already listed:
row,Target,log2 fold change
2,"ACACB (peptide sequence: TVVLDLLR, peptide start residue: 1128) (UniProt O00763)",0.505
23,"HMGB3 (peptide sequence: EKSKFDEMAK, peptide start residue: 56) (UniProt O15347)",-0.477
